Assay results from paper doi:10.1101/2021.10.01.462544.
These are yes or no findings as the source states them, for the method shown. Some results given as binding are weak or reduced against the parent protein; the word gives no strength. Where a sequence is shown, tags or fusion partners need not be part of it.

By UniProt entry, the sequences of proteins in these tests, tags left out.
UniProt P56757: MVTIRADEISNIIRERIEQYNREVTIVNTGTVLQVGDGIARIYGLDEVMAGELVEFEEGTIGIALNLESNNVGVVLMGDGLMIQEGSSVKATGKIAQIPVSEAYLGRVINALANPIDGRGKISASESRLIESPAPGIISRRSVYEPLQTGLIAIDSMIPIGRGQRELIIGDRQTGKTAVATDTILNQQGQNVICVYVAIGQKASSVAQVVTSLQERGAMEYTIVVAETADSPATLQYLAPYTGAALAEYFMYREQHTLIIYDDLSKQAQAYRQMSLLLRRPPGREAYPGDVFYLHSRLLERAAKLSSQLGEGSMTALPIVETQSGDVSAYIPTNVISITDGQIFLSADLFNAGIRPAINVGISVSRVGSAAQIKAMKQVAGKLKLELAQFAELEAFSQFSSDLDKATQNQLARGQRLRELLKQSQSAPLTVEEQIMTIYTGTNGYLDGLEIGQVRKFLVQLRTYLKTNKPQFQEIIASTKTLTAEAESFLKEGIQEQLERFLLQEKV
UniProt P19366: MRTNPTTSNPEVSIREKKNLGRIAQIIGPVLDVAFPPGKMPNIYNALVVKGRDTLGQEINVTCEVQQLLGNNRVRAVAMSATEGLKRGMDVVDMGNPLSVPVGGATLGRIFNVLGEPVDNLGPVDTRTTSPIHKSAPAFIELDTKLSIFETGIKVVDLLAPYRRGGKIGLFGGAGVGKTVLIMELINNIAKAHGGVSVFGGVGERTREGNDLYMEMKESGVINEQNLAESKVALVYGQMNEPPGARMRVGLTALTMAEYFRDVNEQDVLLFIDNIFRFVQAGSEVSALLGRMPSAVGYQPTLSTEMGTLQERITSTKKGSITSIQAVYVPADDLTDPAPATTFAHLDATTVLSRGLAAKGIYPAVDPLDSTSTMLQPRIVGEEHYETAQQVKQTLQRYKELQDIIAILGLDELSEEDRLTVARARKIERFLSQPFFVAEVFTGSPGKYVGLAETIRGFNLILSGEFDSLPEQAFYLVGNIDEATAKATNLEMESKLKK

T1: BD-AtCGL160N, AtCGL160N (29-206 aa) fused to the GAL4 DNA-binding domain (Arabidopsis thaliana) (UniProt O82279)
T1 sequence: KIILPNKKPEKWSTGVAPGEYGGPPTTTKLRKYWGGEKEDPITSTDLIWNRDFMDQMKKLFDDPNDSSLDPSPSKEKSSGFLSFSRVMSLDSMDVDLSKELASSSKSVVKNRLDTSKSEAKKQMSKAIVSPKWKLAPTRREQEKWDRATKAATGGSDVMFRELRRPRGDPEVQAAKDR

T2: BD-AtCGL160N ∆106-134 (Arabidopsis thaliana) (UniProt O82279)
T2 sequence: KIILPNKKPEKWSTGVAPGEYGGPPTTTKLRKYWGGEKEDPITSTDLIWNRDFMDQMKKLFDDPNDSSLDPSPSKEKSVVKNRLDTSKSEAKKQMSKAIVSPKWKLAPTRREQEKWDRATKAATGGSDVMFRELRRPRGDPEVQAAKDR

T3: BD-AtCGL160N ∆135-160 (Arabidopsis thaliana) (UniProt O82279)
T3 sequence: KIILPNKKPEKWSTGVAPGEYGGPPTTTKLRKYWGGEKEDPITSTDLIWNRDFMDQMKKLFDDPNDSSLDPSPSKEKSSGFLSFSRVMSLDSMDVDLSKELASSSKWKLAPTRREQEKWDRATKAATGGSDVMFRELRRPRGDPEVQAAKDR

T4: BD-AtCGL160N ∆29-74 (Arabidopsis thaliana) (UniProt O82279)
T4 sequence: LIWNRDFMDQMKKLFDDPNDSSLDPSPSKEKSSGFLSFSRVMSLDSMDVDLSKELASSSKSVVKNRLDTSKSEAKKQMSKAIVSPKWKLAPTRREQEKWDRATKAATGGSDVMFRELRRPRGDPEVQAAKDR

T5: BD-AtCGL160N ∆161-206 (Arabidopsis thaliana) (UniProt O82279)
T5 sequence: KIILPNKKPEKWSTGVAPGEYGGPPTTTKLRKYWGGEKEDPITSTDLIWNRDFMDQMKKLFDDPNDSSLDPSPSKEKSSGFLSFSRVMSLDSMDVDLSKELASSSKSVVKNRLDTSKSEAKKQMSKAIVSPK

T6: BD-AtCGL160N ∆75-105 (Arabidopsis thaliana) (UniProt O82279)
T6 sequence: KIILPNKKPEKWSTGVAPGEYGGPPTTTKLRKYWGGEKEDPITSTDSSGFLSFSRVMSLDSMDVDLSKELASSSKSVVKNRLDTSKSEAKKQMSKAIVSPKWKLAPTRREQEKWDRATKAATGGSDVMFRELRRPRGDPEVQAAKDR


Legend:
Assay in all cases: two-hybrid
[1] = target: T1, BD-AtCGL160N, AtCGL160N (29-206 aa) fused to the GAL4 DNA-binding domain (Arabidopsis thaliana)
[2] = target: T2, BD-AtCGL160N ∆106-134 (Arabidopsis thaliana)
[3] = target: T3, BD-AtCGL160N ∆135-160 (Arabidopsis thaliana)
[4] = target: T4, BD-AtCGL160N ∆29-74 (Arabidopsis thaliana)
[5] = target: T5, BD-AtCGL160N ∆161-206 (Arabidopsis thaliana)
[6] = target: T6, BD-AtCGL160N ∆75-105 (Arabidopsis thaliana)

| Molecule | binding [1] | further results |
| --- | --- | --- |
| AD-CF1-α, CF1-α fused to the GAL4 activation domain (from UniProt P56757 1-507) | no binding | – |
| AD-CF1-β, CF1-β fused to the GAL4 activation domain (from UniProt P19366 1-498) | binds | binding [2]: binds; binding [3]: binds; binding [4]: no binding; binding [5]: binds; binding [6]: no binding |
| AD-CF1-ε, CF1-ε fused to the GAL4 activation domain (protein, UniProt P09468 1-132) MTLNLCVLTPNRIVWDSEVKEIILSTNSGQIGVLANHAPIATAVDIGILKIRLANQWLTMALMGGFARIGNNEITILVNDAEKNSDIDPQEAQQTLEIAEANLRKAEGKRQTIEANLALRRARTRVEALNTI | no binding | – |
| AD-CF1-δ, CF1-δ fused to the GAL4 activation domain (protein, UniProt Q9SSS9 48-234) SATAASSYAMALADVAKRNDTMELTVTDIEKLEQVFSDPQVLNFFANPTITVEKKRQVIDDIVKSSSLQSHTSNFLNVLVDANRINIVTEIVKEFELVYNKLTDTQLAEVRSVVKLEAPQLAQIAKQVQKLTGAKNVRVKTVIDASLVAGFTIRYGESGSKLIDMSVKKQLEDIASQLELGEIQLAT | no binding | – |

Now from value to molecule, other results behind:

| binding [1] | Molecule | further results |
| --- | --- | --- |
| no binding | AD-CFO-b, soluble domain of CFO-b (51-184 aa) fused to the GAL4 activation domain (domain or fragment, UniProt P56759 51-184) DLLDNRKQRILNTIRNSEELREGAIQQLENARARLRNVETEADKFRVNGYSEIEREKLNLINSTYKTLKQLENYKNETILFEQQRTINQVRERVFQQALQGAIGTLNSCLSNELHLRTINANIGMFGTMKEITD | – |
| no binding | AD-CFO-b', soluble domain of CFO-b' (109-219 aa) fused to the GAL4 activation domain (domain or fragment, UniProt Q42139 109-219) PLGNFMDQRDASIKEKLASVKDTSTEVKELDEQAAAVMRAARAEIAAALNKMKKETQVEVEEKLAEGRKKVEEELKEALASLESQKEETIKALDSQIAALSEDIVKKVLPS | – |
| no binding | BD-AtCGL160N, AtCGL160N (29-206 aa) fused to the GAL4 DNA-binding domain (domain or fragment, UniProt O82279 29-206) KIILPNKKPEKWSTGVAPGEYGGPPTTTKLRKYWGGEKEDPITSTDLIWNRDFMDQMKKLFDDPNDSSLDPSPSKEKSSGFLSFSRVMSLDSMDVDLSKELASSSKSVVKNRLDTSKSEAKKQMSKAIVSPKWKLAPTRREQEKWDRATKAATGGSDVMFRELRRPRGDPEVQAAKDR | – |
